Values quoted from earlier work, collected in US20090082353A1, “TREATMENT OF EPILEPSY WITH NON-IMIDAZOLE ALKYLAMINES HISTAMINE H3-RECEPTOR LIGANDS” (priority 2005, published 2009).
At least one compound was matched to its structure with a doubt left.

System: H3-receptor
Details: cited from earlier work

For `CN1CCN(C2=Nc3cc(Cl)ccc3Nc3ccccc32)CC1` [clozapine], the “potency of H3-receptor antagonism” value is given as “only very low potency”.
